Measured values reported in publication PMC5912950.
No constants are given. Whether binding was seen depends on the method and setting. For some assays here: Binding seen in cells or lysates may run through a third protein. Some results given as binding are weak or reduced against the parent protein; the word gives no strength. For some assays here: Tags and fused reporters may be left off the sequences shown. Values belong to the substance of their own block, whether it stands above or below them.

Protein sequences, listed by entry. Tags and fused reporters are not part of them.
UniProt Q13546: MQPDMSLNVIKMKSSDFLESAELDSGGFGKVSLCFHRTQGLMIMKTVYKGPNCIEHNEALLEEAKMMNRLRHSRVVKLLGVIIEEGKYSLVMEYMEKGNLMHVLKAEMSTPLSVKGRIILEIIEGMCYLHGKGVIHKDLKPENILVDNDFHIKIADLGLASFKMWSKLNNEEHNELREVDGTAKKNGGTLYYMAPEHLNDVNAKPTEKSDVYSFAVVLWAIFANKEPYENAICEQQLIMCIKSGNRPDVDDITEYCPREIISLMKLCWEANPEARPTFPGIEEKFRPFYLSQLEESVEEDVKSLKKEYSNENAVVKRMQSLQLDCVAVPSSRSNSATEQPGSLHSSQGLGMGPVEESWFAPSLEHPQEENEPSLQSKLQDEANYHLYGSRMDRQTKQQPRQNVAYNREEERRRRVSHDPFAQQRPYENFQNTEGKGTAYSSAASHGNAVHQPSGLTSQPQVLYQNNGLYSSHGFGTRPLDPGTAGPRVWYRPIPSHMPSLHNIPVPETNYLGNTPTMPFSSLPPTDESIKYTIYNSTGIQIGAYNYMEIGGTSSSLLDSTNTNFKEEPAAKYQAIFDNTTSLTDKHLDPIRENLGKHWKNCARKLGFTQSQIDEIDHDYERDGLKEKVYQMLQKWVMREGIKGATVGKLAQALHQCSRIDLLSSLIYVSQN

Tests used:
[1] = target: T1, in vitro translated FLAG-MIB2 (UniProt Q96AX9); assay: pull-down; in vitro translated FLAG-MIB2 incubated with lysates of MDA-MB-231 cells left untreated or treated with TNF/SM/zVAD-fmk for 4 hr
T1 sequence: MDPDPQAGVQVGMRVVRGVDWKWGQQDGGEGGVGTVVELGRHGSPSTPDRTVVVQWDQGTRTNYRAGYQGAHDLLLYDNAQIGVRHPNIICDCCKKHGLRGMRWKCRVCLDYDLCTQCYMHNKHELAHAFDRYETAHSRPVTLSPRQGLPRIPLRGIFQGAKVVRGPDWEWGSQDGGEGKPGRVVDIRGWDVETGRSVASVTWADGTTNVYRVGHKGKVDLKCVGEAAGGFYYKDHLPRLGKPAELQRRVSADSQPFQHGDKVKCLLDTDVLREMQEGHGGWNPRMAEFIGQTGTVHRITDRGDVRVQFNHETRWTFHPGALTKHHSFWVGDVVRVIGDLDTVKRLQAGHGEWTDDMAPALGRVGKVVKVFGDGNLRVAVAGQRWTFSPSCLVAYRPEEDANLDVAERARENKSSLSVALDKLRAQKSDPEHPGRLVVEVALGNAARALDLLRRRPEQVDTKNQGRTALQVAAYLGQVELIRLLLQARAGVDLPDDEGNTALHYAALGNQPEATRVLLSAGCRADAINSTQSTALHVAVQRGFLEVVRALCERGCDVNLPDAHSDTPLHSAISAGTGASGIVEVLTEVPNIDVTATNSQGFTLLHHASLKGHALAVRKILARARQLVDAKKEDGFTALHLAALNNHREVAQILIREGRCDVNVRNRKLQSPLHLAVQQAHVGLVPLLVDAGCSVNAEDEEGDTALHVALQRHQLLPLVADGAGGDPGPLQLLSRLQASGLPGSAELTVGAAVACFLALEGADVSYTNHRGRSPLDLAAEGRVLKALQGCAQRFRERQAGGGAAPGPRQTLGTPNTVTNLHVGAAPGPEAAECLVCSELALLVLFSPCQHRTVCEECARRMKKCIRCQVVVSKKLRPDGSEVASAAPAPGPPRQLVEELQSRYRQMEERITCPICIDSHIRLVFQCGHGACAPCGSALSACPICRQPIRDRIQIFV

[2] = target: T2, Mind Bomb-2 (MIB2), endogenous (human (endogenous in HEK293, MDA-MB-231, HT1080, 786-0)) (UniProt Q96AX9); assay: co-IP; immuno-precipitation of endogenous MIB2 from MDA-MB-231 or 786-0 cells left untreated (no TNF); western blot
T2 sequence: T1 sequence

[3] = target: T2, Mind Bomb-2 (MIB2), endogenous (human (endogenous in HEK293, MDA-MB-231, HT1080, 786-0)); assay: co-IP; immuno-precipitation of endogenous MIB2 with a MIB2 antibody (protein A/G agarose) from MDA-MB-231 or 786-0 cells treated with FLAG-hTNF (0.8 μg/mL) for the indicated times; western blot
[4] = target: T3, recombinant MIB2 (UniProt Q96AX9); assay: in vitro binding assay; recombinant MIB2 with in vitro translated RIPK1; only the target purified
T3 sequence: T1 sequence

[5] = target: T4, HA-MIB2 (UniProt Q96AX9); assay: co-IP; HA-tagged MIB constructs co-expressed with untagged RIPK1 in 293T cells; HA immuno-precipitation (anti-HA beads, DISC lysis buffer, overnight at 4°C), western blot for RIPK1
T4 sequence: T1 sequence

binding [1]: binds | binding [3]: binds
Substance: RIPK1, endogenous (from UniProt Q13546 1-671)
binding [2]: no binding (condition: cells not stimulated with TNF)

binding [4]: binds
Substance: in vitro translated RIPK1 (from UniProt Q13546 1-671)

binding [5]: binds
Substance: untagged RIPK1 (from UniProt Q13546 1-671)
